The values below come from PubChem BioAssay AID218 (DTP/NCI, 2004).

The structures appear in SMILES notation. The list shows only some results of the screen, not a fair sample: it is rich in T/C values a quarter to a half above the control, in often repeated tests (any T/C) and in doses without a T/C. Further doses and runs are listed elsewhere. T/C is the treated group as % of the vehicle group. Schedule codes are those of the source, taken here to give the interval after Q, in days (D) or hours (H), and the number of doses after X. Some T/C values are followed by the survivors on the day toxicity was checked, most often the fifth; where none is given, no animal had died by that day. Some entries give survivors of the animals treated and no T/C: the source files T/C as zero there, which appears to mark a toxic dose or a test without result, not a measured value. Counts of survivors are from the toxicity check (mostly the fifth day) where no day follows; animals may have died later. Some entries hold several experiments; their values stand side by side, smallest first. Some schedule codes hold Z or #, which are not explained here. Starred links: 1 amine or outer side, 2 acyl side, 3 side chain; linkers in the order of their positions; H or OH if unused. Positions of bridges follow the written chain, without caps; N, C: chain ends. Non-standard residues stand in square brackets, D forms with d. Residues, ends and D or L forms follow the SMILES beside them. Chains are numbered I, II in the order given. Actinocin(9to1) = Cc1c2oc3c(C)ccc(C(=O)[*:1])c3nc-2c(C(=O)[*:2])c(N)c1=O; aThr = C[C@H](O)[C@H](N)C(=O)O; NMeV = CN[C@H](C(=O)O)C(C)C; Sar = CNCC(=O)O

This test has as its system C57BL/6 mice, Adenocarcinoma 755 sc, tumor weight T/C. Description: NCI In Vivo Anticancer Drug Screen. Data for tumor model Adenocarcinoma 755 (subcutaneous) in C57BL/6 mice. The note with it: T/C endpoint: mean tumor weight, higher T/C = larger tumour; for T/C: evaluated on day 12. The procedure: The antitumor activity of compounds was measured in mice bearing transplantable tumors. Survival or tumor size were measured and the results are expressed as the measurement made in the treated group (T) divided by the measurement made in the vehicle treated control group (C). The tumor model used in this assay is Adenocarcinoma 755 (subcutaneous) in C57BL/6 mice

[1] abbreviates: dose: 40.0 mg/kg/injection, schedule: Q01DX011 (ip), vehicle: carboxymethylcellulose (CMC).
The mark [2] stands for this setting: dose: 50.0 mg/kg/injection, schedule: Q01DX011 (ip), vehicle: saline.
[3] abbreviates: dose: 100.0 mg/kg/injection, schedule: Q01DX011 (ip), vehicle: saline.
[4] abbreviates: dose: 75.0 mg/kg/injection, schedule: Q01DX011 (ip), vehicle: carboxymethylcellulose (CMC).
Where [5] appears, read: dose: 75.0 mg/kg/injection, schedule: Q01DX011 (sc), vehicle: saline.
Where [6] appears, read: dose: 100.0 mg/kg/injection, schedule: Q01DX011 (ip), vehicle: carboxymethylcellulose (CMC).
Where [7] appears, read: dose: 75.0 mg/kg/injection, schedule: Q01DX011 (ip), vehicle: saline.

Turning to `CCCCNc1ncnc2nc[nH]c12`, the survivor count under setting [1] is listed as 5 of 10, the survivor count under setting [2] was 3 of 10 and the survivor count under setting [3] is 0 of 10.
As to `C1CN1c1nc(N2CC2)nc(N2CC2)n1`, the survivor count (dose: 0.75 mg/kg/injection, schedule: Q01DX011 (ip), vehicle: saline) was 5 of 10. Besides, where the note is “dose: 0.75 mg/kg/injection, schedule: Q02DX006 (ip), vehicle: saline”, the T/C was 125 % of control.
In the case of `Nc1[nH]c(=S)nc2nc[nH]c12`, the survivor count (dose: 40.0 mg/kg/injection, schedule: Q02DX006 (ip), vehicle: saline) is listed as 0 of 10.
As to `Cn1cnc2[nH]cnc(=S)c21`, under setting [4], the T/C is 147 % of control.
Regarding `CC(C)Sc1nc(N)nc2nc[nH]c12`, the survivor count (dose: 200.0 mg/kg/injection, schedule: Q01DX011 (ip), vehicle: saline) was 5 of 10.
Consider `CC(=O)OCC(=O)[C@@]1(O)CC[C@H]2[C@@H]3CCC4=CC(=O)CC[C@]4(C)[C@H]3C(=O)C[C@@]21C`, for which the survivor count under setting [5] was 4 of 10; the survivor count (dose: 125.0 mg/kg/injection, schedule: Q01DX011 (sc), vehicle: saline) was 5 of 10; the survivor count (dose: 150.0 mg/kg/injection, schedule: Q01DX011 (sc), vehicle: saline) is 4 of 10.
For `CN1CC(=O)N=C1N`, the survivor count (dose: 2000.0 mg/kg/injection, schedule: Q01DX011 (ip), vehicle: saline) was 0 of 10.
Turning to `Nc1nc(=S)c2ncn(C3OC(COC(=O)c4ccccc4)C(OC(=O)c4ccccc4)C3OC(=O)c3ccccc3)c2[nH]1` (stereo unspecified), where the note is “dose: 50.0 mg/kg/injection, schedule: Q01DX011 (ip), vehicle: methylcellulose (MC)”, the survivor count is 3 of 10.
In the case of `Cc1ccc(N2CCN(CCCN3CCN(c4ccc(Cl)cc4)CC3)CC2)cc1`, under setting [6], the survivor count is recorded as 4 of 10.
Consider `Nc1ncnc2n[nH]nc12`, for which the survivor count is recorded as 5 of 10 under setting [2], 0 of 10 under setting [7] and 0 of 10 under setting [3].
As to `Nc1nc(F)nc2c1ncn2C1OC(CO)C(O)C1O` (stereo unspecified), the survivor count (dose: 3.0 mg/kg/injection, schedule: Q01DX011 (ip), vehicle: carboxymethylcellulose (CMC)) is 1 of 10.
With `Nc1nncc2[nH]cnc12`, the survivor count reads like this: (dose: 50.0 mg/kg/injection, schedule: Q01DX011 (ip), vehicle: carboxymethylcellulose (CMC)) 3 of 10; under setting [4], 0 of 10.
Take `O=c1[nH]cc(F)c(=O)[nH]1`: the survivor count reads like this: (dose: 30.0 mg/kg/injection, schedule: Q01DX011 (ip), vehicle: carboxymethylcellulose (CMC)) 0 of 10; under setting [1], 0 of 10.
For `Cc1c2ccccc2c(C)c2c1ccc1ccccc12`, the survivor count is, setting by setting: (dose: 38.0 mg/kg/injection, schedule: Q01DX011 (ip), vehicle: saline) 1 of 10; (dose: 76.0 mg/kg/injection, schedule: Q01DX011 (ip), vehicle: saline) 0 of 10.
Turning to `Nc1nc2n[nH]nc2c(=O)[nH]1`, under setting [5], the survivor count is recorded as 6 of 10.
With `O=C(O)c1[nH]c(=O)[nH]c(=O)c1Br`, the T/C by setting is: (dose: 20.0 mg/kg/injection, schedule: Q01DX011 (ip), vehicle: saline) 139 % of control; (dose: 30.0 mg/kg/injection, schedule: Q01DX011 (ip), vehicle: saline) 132 % of control; (dose: 40.0 mg/kg/injection, schedule: Q01DX011 (ip), vehicle: saline) 130 % of control.
With `CN1c2ccc3ccccc3c2Sc2ccc3ccccc3c21`, the survivor count reads like this: (dose: 66.0 mg/kg/injection, schedule: Q01DX011 (ip), vehicle: carboxymethylcellulose (CMC)) 4 of 10; under setting [6], 5 of 10; (dose: 150.0 mg/kg/injection, schedule: Q01DX011 (ip), vehicle: carboxymethylcellulose (CMC)) 0 of 10; (dose: 225.0 mg/kg/injection, schedule: Q01DX011 (ip), vehicle: carboxymethylcellulose (CMC)) 2 of 10.
With `CCCCn1cnc2c(SSc3ncnc4c3ncn4CCCC)ncnc21`, the survivor count reads like this: (dose: 60.0 mg/kg/injection, schedule: Q01DX011 (ip), vehicle: saline) 5 of 10; (dose: 120.0 mg/kg/injection, schedule: Q01DX011 (ip), vehicle: saline) 0 of 10; (dose: 240.0 mg/kg/injection, schedule: Q01DX011 (ip), vehicle: saline) 0 of 10.
With `Cc1c2oc3c(C)ccc(C(=O)N[C@@H]4C(=O)N[C@H](C(C)C)C(=O)N5CCC[C@H]5C(=O)N(C)CC(=O)N(C)[C@@H](C(C)C)C(=O)O[C@H]4C)c3nc-2c(C(=O)N[C@@H]2C(=O)N[C@H](C(C)C)C(=O)N3CCC[C@H]3C(=O)N(C)CC(=O)N(C)[C@@H](C(C)C)C(=O)O[C@H]2C)c(N)c1=O` (I: [aThr][dV]P[Sar][NMeV] / II: [aThr][dV]P[Sar][NMeV]; ester I:1-I:C, II:1-II:C; linker I:N-II:N via Actinocin(9to1)), the survivor count (dose: 0.05 mg/kg/injection, schedule: Q01DX011 (ip), vehicle: saline) is 6 of 10.
As to `C=CC(CN1CC1)OC(C)=O` (stereo unspecified), the survivor count by setting is: (dose: 2.0 mg/kg/injection, schedule: Q01DX011 (sc), vehicle: saline) 6 of 10; (dose: 4.0 mg/kg/injection, schedule: Q#A X022 (ip), vehicle: saline) 6 of 10; (dose: 8.0 mg/kg/injection, schedule: Q#A X022 (ip), vehicle: saline) 2 of 10; (dose: 15.0 mg/kg/injection, schedule: Q01DX011 (oral), vehicle: saline) 4 of 12.
Take `O=C(c1ccc(C(=O)N2CC2)cc1)N1CC1`: the T/C (dose: 3.0 mg/kg/injection, schedule: Q01DX011 (ip), vehicle: methylcellulose (MC)) was 126 % of control [9 of 10 alive] and the T/C (dose: 6.25 mg/kg/injection, schedule: Q01DX011 (ip), vehicle: methylcellulose (MC)) was 129 % of control [9 of 10 alive].
With `Cn1cnc2ncnc(Cl)c21`, under setting [6], the T/C is 143 % of control.
Turning to `CCc1nc(N)nc(N)c1-c1ccc(Cl)cc1`, under setting [7], the survivor count was 6 of 10.
Take `COC1=C(N)C(=O)c2nc(-c3nc(C(=O)O)c(C)c(-c4ccc(OC)c(OC)c4O)c3N)ccc2C1=O`: the survivor count is listed as 1 of 10 (dose: 0.2 mg/kg/injection, schedule: Q01DX011 (ip), vehicle: saline); 0 of 10 (dose: 0.3 mg/kg/injection, schedule: Q01DX011 (ip), vehicle: saline); 0 of 10 (dose: 0.45 mg/kg/injection, schedule: Q01DX011 (ip), vehicle: saline); 0 of 10 (dose: 0.66 mg/kg/injection, schedule: Q01DX011 (ip), vehicle: saline).
As to `CSc1ncnc2c1ncn2C1OC(CO)C(O)C1O` (stereo unspecified), the survivor count is given as 0 of 10 (dose: 36.0 mg/kg/injection, schedule: Q01DX011 (ip), vehicle: saline) and 0 of 10 (dose: 54.0 mg/kg/injection, schedule: Q01DX011 (ip), vehicle: saline).
On to `[N-]=[N+]=CC(=O)CCC(N)C(=O)O` (stereo unspecified), for which the survivor count is, setting by setting: (dose: 0.04 mg/kg/injection, schedule: Q01DX011 (ip), vehicle: saline) 0 of 10; (dose: 0.06 mg/kg/injection, schedule: Q01DX011 (ip), vehicle: saline) 0 of 10; (dose: 0.08 mg/kg/injection, schedule: Q01DX011 (ip), vehicle: saline) 0 of 10 and 2 of 10; (dose: 0.1 mg/kg/injection, schedule: Q01DX011 (ip), vehicle: saline) 0 of 10; (dose: 12.0 micrograms/kg/injection, schedule: Q01DX011 (ip), vehicle: saline) 6 of 10.
Consider `CN(Cc1cnc2nc(N)nc(N)c2n1)c1ccc(C(=O)N[C@@H](CCC(=O)O)C(=O)O)cc1`, for which the survivor count (dose: 1.0 mg/kg/injection, schedule: Q01DX011 (ip), vehicle: saline) is listed as 6 of 10.
